Reference: doi:10.1101/2023.05.26.542399
No constants are given. Whether binding was seen depends on the method and setting. Some binding calls cover weakened binding; strength is not graded here.

B1: A. thaliana XRCC4 (AtXRCC4), co-expressed with AtLIG4 in Sf9 (protein, UniProt Q682V0 1-264)
chain: MIGVDSKSSSTTFIETMVESEKTKHTCLRLEISGADPIFVKGTWHNSRFDISVTDGSSSWICNATEEEVAERAAQWDQPVSEYLKLAEQYLGFQQPNSVYSFSDALEGSKRLSWTFEKEGTKLEWRWKCKPSDDSKKITVGILDFLMEANIRLSEEVVNKTRSFEKMRSEAERCLAQGEKLCDEKTEFESATYAKFLSVLNAKKAKLRALRDKEDSVRVVEEEESTDKAESFESGRSDDEKSEEEASKKATSSKARGGKRAARS
B2: A. thaliana Ku80 (co-expressed with Ku70) (protein, UniProt Q9FQ09 1-680)
chain: MARNREGLVLVLDVGPAMRSVLPDVEKACSMLLQKKLIYNKYDEVGIVVFGTEETGNELAREIGGYENVTVLRNIRVVDELAAEHVKQLPRGTVAGDFLDALIVGMDMLIKMYGNAHKGKKRMCLITNAACPTKDPFEGTKDDQVSTIAMKMAAEGIKMESIVMRSNLSGDAHERVIEENDHLLTLFSSNAIAKTVNVDSPLSLLGSLKTRRVAPVTLFRGDLEINPTMKIKVWVYKKVAEERLPTLKMYSDKAPPTDKFAKHEVKVDYDYKVTAESTEVIAPEERIKGFRYGPQVIPISPDQIETLKFKTDKGMKLLGFTEASNILRHYYMKDVNIVVPDPSKEKSVLAVSAIAREMKETNKVAIVRCVWRNGQGNVVVGVLTPNVSERDDTPDSFYFNVLPFAEDVREFPFPSFNKLPSSWKPDEQQQAVADNLVKMLDLAPSAEEEVLKPDLTPNPVLQRFYEYLELKSKSTDATLPPMDGTFKRLMEQDPELSSNNKSIMDTFRGSFEVKENPKLKKASKRLLRDKPSGSDDEDNRMITYDAKENKIDIVGDANPIQDFEAMISRRDKTDWTEKAITQMKNLIMKLVENCTDEGDKALECVLALRKGCVLEQEPKQFNEFLNHLFKLCQERNLSHLLEHFMSKKITLIPKSEAADSDIVDENAGDFIVKQESMLES

How the values were obtained:
[1] = target: T1, A. thaliana DNA ligase IV (AtLIG4), co-expressed with AtXRCC4 (Arabidopsis thaliana) (UniProt Q9LL84); experiment: co-purification
T1 sequence: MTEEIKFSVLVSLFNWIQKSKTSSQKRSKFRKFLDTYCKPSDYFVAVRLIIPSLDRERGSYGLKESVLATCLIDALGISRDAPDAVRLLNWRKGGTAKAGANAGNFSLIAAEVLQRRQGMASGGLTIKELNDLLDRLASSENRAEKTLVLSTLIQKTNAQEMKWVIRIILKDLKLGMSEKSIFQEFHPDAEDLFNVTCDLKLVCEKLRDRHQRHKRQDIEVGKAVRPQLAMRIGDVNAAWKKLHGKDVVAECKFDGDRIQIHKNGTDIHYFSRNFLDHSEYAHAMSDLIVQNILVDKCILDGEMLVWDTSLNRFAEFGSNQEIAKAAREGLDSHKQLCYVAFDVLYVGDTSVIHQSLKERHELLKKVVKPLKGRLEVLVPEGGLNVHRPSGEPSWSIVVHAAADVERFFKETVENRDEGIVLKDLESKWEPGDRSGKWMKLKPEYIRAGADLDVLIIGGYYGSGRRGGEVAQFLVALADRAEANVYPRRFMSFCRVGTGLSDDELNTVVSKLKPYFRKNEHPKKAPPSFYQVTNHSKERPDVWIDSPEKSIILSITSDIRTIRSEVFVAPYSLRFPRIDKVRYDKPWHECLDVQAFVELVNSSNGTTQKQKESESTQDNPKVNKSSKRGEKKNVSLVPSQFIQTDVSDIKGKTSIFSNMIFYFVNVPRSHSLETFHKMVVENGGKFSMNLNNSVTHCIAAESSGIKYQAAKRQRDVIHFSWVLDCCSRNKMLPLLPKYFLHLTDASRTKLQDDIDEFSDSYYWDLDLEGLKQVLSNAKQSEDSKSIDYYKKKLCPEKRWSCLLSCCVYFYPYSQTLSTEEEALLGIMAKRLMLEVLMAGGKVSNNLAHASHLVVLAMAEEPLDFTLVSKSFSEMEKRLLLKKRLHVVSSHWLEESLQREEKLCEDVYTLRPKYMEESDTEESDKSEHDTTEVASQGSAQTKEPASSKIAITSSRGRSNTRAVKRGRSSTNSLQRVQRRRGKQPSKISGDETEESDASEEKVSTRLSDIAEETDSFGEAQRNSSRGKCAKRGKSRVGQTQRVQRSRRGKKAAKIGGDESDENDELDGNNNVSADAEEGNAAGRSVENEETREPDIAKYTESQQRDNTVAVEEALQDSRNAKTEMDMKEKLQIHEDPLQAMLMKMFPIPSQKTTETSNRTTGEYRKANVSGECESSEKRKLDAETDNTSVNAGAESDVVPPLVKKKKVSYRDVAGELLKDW

[2] = target: T2, A. thaliana Ku70 (co-expressed with Ku80) (Arabidopsis thaliana) (UniProt Q9FQ08); experiment: co-purification
T2 sequence: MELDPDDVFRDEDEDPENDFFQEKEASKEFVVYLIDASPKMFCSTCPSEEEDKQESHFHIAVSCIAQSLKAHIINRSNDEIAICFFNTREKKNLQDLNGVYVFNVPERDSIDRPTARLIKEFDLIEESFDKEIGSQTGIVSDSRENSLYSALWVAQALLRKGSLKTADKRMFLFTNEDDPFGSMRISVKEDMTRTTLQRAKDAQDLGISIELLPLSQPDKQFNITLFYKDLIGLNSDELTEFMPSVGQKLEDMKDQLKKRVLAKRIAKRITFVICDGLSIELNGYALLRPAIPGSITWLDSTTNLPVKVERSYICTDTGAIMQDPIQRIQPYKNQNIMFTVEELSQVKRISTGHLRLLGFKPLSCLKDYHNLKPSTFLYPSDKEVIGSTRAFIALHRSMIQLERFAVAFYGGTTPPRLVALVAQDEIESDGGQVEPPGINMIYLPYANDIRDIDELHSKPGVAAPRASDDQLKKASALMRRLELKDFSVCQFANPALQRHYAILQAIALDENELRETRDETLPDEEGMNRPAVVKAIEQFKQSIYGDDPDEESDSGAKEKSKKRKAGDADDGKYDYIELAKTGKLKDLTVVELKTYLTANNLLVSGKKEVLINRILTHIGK

Binder | binding [1] | binding [2]
B1 | binds | 
B2 |  | binds
